Assay results reported in article PMC11402128, “The stability of FKBP9 maintained by BiP is crucial for glioma progression” (Genes & Diseases, 2023).

Biological target: T1, Flag-HA-labeled FKBP9 (FKBP9-HA) (human) (UniProt O95302)
T1 sequence: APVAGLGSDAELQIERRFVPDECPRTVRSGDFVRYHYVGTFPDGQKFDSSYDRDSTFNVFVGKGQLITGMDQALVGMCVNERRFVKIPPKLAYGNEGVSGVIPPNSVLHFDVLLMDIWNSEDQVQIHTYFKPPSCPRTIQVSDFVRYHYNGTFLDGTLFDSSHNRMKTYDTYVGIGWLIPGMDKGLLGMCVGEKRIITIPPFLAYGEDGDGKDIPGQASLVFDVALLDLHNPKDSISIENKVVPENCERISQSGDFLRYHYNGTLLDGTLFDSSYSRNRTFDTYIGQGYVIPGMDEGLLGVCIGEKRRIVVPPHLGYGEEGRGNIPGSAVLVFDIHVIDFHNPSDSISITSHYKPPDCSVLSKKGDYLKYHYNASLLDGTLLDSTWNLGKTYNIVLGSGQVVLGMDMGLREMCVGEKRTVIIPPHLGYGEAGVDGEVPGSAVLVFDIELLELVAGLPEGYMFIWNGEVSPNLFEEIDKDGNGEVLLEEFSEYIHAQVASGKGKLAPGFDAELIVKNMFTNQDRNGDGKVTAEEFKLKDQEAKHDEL
Assay: co-IP; HA antibody co-immunoprecipitation from lysate of T98G cells expressing HA-tagged proteins (FKBP9-HA, 1461-HA, 903-HA, BiP-HA or EGFP-HA), detected by Western blot; buffer 50 mM Tris-HCl pH 7.4, 150 mM NaCl, 3 mM EDTA, 0.5% Triton X-100

Row | binding | Substance
1 | no binding | Hsp40, endogenous (human (endogenous in T98G))
2 | no binding | Hsp70, endogenous (human (endogenous in T98G))

Results are given in words; binding and its absence hold for the method and conditions named. In cells and extracts the contact can be indirect. Where a sequence is shown, tags or fusion partners need not be part of it.
